Test results as given in patent US20220073617A1.
Results are given in words; binding and its absence hold for the method and conditions named. Some results given as binding are weak or reduced against the parent protein; the word gives no strength. Tags and fused reporters may be left off the sequences shown.

Target: T1, human VISTA on cells (human monocytes, AML3 cells, 293T/HEK293 cells expressing full-length human VISTA) (human) (UniProt Q9H7M9)
T1 sequence: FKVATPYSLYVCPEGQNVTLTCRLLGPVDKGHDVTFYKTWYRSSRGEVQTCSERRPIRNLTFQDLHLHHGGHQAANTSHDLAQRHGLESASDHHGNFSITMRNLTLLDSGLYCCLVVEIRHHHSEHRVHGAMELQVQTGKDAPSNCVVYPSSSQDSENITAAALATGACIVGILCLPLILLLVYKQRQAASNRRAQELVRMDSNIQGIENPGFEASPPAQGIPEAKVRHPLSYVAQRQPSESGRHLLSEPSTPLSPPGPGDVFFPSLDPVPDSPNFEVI
Assay: cell-based assay, acidic pH

binding: binds
B1: PSGL1-Fc / recombinant human PSGL-1 (construct limits not stated) (Fc fusion, UniProt Q14242 42-295, looked up, not shown: a dimerising Fc or GST)
chain: QATEYEYLDYDFLPETEPPEMLRNSTDTTPLTGPGTPESTTVEPAARRSTGLDAGGAVTELTTELANMGNLSTDSAAMEIQTTQPAATEAQTTQPVPTEAQTTPLAATEAQTTRLTATEAQTTPLAATEAQTTPPAATEAQTTQPTGLEAQTTAPAAMEAQTTAPAAMEAQTTPPAAMEAQTTQTTAMEAQTTAPEATEAQTTQPTATEAQTTPLAAMEALSTEPSATEALSMEPTTKRGLFIPFSVSSVTHKG
